# Experimental data reported in PMC12376677.
# Sequences of proteins named here, by UniProt entry; tags and fusion partners are left off.
# UniProt O75925: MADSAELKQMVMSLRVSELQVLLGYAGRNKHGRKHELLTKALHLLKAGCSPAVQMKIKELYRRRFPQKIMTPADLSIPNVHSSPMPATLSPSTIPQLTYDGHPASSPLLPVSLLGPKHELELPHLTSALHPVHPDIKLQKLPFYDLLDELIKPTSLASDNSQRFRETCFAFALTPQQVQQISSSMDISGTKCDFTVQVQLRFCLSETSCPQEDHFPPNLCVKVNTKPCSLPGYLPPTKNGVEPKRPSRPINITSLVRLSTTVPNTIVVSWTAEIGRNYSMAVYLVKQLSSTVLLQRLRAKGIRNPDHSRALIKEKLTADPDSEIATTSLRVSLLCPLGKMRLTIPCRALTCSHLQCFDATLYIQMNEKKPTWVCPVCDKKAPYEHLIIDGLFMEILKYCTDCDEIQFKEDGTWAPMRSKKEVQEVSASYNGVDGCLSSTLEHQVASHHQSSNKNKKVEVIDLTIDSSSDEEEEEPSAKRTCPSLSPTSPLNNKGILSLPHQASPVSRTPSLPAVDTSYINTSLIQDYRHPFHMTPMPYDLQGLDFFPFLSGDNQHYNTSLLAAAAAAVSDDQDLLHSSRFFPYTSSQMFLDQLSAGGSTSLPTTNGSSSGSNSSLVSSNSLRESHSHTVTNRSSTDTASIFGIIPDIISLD
# Results are given in words; binding and its absence hold for the method and conditions named. Binding seen in cells or lysates may run through a third protein. Some binding calls cover weakened binding; strength is not graded here. For some assays here: Tags and fused reporters may be left off the sequences shown.
# Experiments:
# [1] = molecular target: T1, FLAG-tagged DHX36 with deletion of 747–779 aa (UniProt Q9H2U1); assay: co-IP; FLAG-DHX36 (WT or 747-779 deletion) co-transfected with HA-PIAS1 in SKOV3 cells; text: FLAG co-IP; legend: anti-HA co-IP, FLAG blot
# T1 sequence: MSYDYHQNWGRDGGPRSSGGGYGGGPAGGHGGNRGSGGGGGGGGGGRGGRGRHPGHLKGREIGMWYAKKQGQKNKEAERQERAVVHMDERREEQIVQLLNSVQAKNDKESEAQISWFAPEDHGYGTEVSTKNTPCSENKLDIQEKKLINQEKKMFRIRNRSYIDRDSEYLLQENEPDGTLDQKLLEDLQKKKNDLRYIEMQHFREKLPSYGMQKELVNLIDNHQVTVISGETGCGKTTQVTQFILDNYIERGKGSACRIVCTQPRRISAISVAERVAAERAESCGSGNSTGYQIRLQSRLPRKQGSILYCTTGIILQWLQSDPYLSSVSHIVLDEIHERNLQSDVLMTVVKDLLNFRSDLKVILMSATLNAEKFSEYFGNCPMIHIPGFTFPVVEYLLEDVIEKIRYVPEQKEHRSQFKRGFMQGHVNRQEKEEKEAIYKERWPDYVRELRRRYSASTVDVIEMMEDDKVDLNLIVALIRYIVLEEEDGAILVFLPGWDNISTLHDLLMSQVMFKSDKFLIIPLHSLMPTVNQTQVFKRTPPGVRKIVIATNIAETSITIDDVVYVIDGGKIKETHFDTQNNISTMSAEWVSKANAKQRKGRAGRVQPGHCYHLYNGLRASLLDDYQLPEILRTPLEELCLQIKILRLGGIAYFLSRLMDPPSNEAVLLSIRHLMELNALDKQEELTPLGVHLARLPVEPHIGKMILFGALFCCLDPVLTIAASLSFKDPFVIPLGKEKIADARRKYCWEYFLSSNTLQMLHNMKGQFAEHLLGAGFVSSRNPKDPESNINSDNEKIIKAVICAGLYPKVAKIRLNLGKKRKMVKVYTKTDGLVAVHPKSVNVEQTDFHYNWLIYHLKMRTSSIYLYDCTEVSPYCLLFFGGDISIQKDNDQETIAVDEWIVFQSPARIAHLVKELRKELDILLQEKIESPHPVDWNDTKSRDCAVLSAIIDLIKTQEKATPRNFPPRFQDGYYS
# [2] = molecular target: T2, DHX36 (human (endogenous in SKOV3 or COV504 cells)) (UniProt Q9H2U1); assay: co-IP; endogenous proteins; anti-DHX36 or anti-PIAS1 antibody, Dynabeads Protein G; lysis buffer 50 mM Tris-HCl pH 8.0, 150 mM NaCl, 1% NP40, 1 mM DTT; western blot; also in cells overexpressing lncRNA CATED (more co-precipitate)
# T2 sequence: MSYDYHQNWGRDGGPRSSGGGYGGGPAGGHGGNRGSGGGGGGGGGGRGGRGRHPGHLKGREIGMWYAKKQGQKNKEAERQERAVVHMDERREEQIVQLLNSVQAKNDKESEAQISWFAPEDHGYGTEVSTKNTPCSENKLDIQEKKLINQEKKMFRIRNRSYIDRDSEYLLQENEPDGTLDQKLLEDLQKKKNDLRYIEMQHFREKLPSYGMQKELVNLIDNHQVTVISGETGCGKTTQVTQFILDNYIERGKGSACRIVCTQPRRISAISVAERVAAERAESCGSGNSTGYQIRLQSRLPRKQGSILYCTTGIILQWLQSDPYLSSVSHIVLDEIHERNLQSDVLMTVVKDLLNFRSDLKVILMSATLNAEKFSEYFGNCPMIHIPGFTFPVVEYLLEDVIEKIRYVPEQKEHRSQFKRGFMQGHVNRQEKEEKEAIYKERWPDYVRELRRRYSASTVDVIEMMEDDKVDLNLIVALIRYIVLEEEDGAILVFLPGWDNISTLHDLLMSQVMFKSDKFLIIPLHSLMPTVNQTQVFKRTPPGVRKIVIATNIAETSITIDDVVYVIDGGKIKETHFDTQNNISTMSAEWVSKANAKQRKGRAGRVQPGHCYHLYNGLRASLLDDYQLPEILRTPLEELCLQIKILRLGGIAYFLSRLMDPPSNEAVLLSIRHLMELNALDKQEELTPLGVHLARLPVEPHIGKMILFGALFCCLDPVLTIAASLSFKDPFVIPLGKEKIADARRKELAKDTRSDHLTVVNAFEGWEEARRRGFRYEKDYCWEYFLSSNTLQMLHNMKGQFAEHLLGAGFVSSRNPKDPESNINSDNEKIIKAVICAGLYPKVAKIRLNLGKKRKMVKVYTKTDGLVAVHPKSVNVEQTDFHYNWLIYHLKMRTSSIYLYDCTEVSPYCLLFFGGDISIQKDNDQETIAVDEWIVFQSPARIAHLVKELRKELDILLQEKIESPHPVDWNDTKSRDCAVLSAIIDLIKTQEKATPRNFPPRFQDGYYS
binding [1],binding [2],Substance
no binding,,HA-PIAS1 (from UniProt O75925 1-651)
,binds,PIAS1 (from UniProt O75925 1-651)
